Measurements: article PMC9146896, “Uracil as a Zn-Binding Bioisostere of the Allergic Benzenesulfonamide in the Design of Quinoline–Uracil Hybrids as Anticancer Carbonic Anhydrase Inhibitors” (Pharmaceuticals, 2022)

System: lung cancer cell line (A549)
Assay: Antiproliferative activity, MTT assay under hypoxic conditions
Settings: Homo sapiens, A549, read-out: Cytotoxicity IC50 A549

Structure (SMILES): CN[C@@H]1C[C@H]2O[C@@](C)([C@@H]1OC)n1c3ccccc3c3c4c(c5c6ccccc6n2c5c31)C(=O)NC4 [Staurosporine, staurosporine, reference compound]
- IC50: 6.06 ± 0.17 µM
